These results are taken from PubChem BioAssay AID328 (DTP/NCI, 2004).

Structures are written as SMILES. The list shows only some results of the screen, not a fair sample: it is rich in T/C values a quarter to a half above the control, in often repeated tests (any T/C) and in doses without a T/C. Other doses and runs of a compound stand elsewhere. T/C: endpoint of the treated group in % of that of the vehicle group. Some doses have a count of surviving animals in place of a T/C: the source files T/C as zero there, which appears to mark a toxic dose or a test without result, not a measured value. Some doses without a T/C left all or most animals alive at the check, yet need not have been tolerated: the source hardly ever lists a survival T/C far under the control, and the zero likely stands for such cases as well. Counts of survivors are from the toxicity check (mostly the fifth day) where no day follows; animals may have died later. Schedules are NCI's codes, taken here to give the interval after Q, in days (D) or hours (H), and the number of doses after X. Where survival is the endpoint, the PubChem record calls one and a half times the control and up active, and a quarter to a half above the control has no call in these data; cut-offs in other NCI protocols can differ. Marks such as (2×) count equal records among those shown. Some doses were run more than once; the values are given in rising order. Some T/C values carry the count of animals alive at the toxicity check (mostly the fifth day); without a count, all were alive then.

The assay deals with BDF1 mice, P388 leukemia ip, median survival T/C. The experiment in a line: NCI In Vivo Anticancer Drug Screen. Data for tumor model P388 Leukemia (intraperitoneal) in B6D2F1 (BDF1) mice. The following applies: T/C endpoint: median survival time, higher T/C = longer survival. In outline:
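Vehicle-dosed animals serve as the reference; survival of compound-dosed, tumour-implanted mice is divided by it.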

Where [1] appears, read: dose: 25.0 mg/kg/injection, schedule: Q01DX009 (ip), vehicle: saline with Tween-80.
[2] abbreviates: dose: 50.0 mg/kg/injection, schedule: Q01DX009 (ip), vehicle: saline with Tween-80.
The mark [3] stands for this setting: dose: 100.0 mg/kg/injection, schedule: Q01DX009 (ip), vehicle: saline with Tween-80.
[4] abbreviates: dose: 200.0 mg/kg/injection, schedule: Q01DX009 (ip), vehicle: Klucel (hydroxypropylcellulose) (HPC).
Setting [5] is: dose: 200.0 mg/kg/injection, schedule: Q01DX009 (ip), vehicle: saline with Tween-80.
Where [6] appears, read: dose: 400.0 mg/kg/injection, schedule: Q04DX003 (ip), vehicle: saline with Tween-80.
Setting [7] is: dose: 400.0 mg/kg/injection, schedule: Q01DX009 (ip), vehicle: saline with Tween-80.
[8] abbreviates: dose: 400.0 mg/kg/injection, schedule: Q01DX009 (ip), vehicle: Klucel (hydroxypropylcellulose) (HPC).
Setting [9] is: dose: 1.56 mg/kg/injection, schedule: Q01DX009 (ip), vehicle: water.
Setting [10] is: dose: 100.0 mg/kg/injection, schedule: Q01DX009 (ip), vehicle: saline.
Setting [11] is: dose: 200.0 mg/kg/injection, schedule: Q04DX003 (ip), vehicle: saline with Tween-80.

For `O=NN(CCF)C(=O)NCCF`, the T/C reads like this: (dose: 0.25 mg/kg/injection, schedule: Q01DX009 (ip), vehicle: saline) 127 % of control; (dose: 0.5 mg/kg/injection, schedule: Q01DX009 (ip), vehicle: saline) 127 and 130 % of control; (dose: 2.2 mg/kg/injection, schedule: Q04DX003 (ip), vehicle: saline) 143 % of control; (dose: 5.0 mg/kg/injection, schedule: Q04DX003 (ip), vehicle: saline) 130 % of control. Besides, the survivor count (dose: 2.0 mg/kg/injection, schedule: Q01DX009 (ip), vehicle: saline) was 6 of 6.
As to `C/C(=N/N)c1ccc(Br)cc1`, the survivor count runs as follows: (dose: 12.0 mg/kg/injection, schedule: Q01DX009 (ip), vehicle: saline with Tween-80) 6 of 6; under setting [1], 5 of 6; under setting [2], 0 of 6; under setting [3], 0 of 6. Also, under “dose: 75.0 mg/kg/injection, schedule: Q04DX003 (ip), vehicle: saline with Tween-80”, the T/C is 127 % of control (2×).
On to `CC(=O)Nc1ccc(NC(=O)NCCCl)cc1`, for which the survivor count is, setting by setting: under setting [4], 2 of 6; (dose: 300.0 mg/kg/injection, schedule: Q04DX003 (ip), vehicle: Klucel (hydroxypropylcellulose) (HPC)) 4 of 6. For the same compound, the T/C (dose: 200.0 mg/kg/injection, schedule: Q04DX003 (ip), vehicle: Klucel (hydroxypropylcellulose) (HPC)) is 125 % of control.
In the case of `N=[N+]=CC(=O)CC(N)C(=O)O` (stereo not drawn), the survivor count reads like this: (dose: 100.0 mg/kg/injection, schedule: Q04DX003 (ip), vehicle: saline) 6 of 6; (dose: 200.0 mg/kg/injection, schedule: Q04DX003 (ip), vehicle: saline) 6 of 6; (dose: 400.0 mg/kg/injection, schedule: Q04DX003 (ip), vehicle: saline) 6 of 6.
`CC(=O)OC1=CCC(C(C)(C)C)CC1` (stereo not drawn): the survivor count by setting is: (dose: 55.0 mg/kg/injection, schedule: Q01DX009 (ip), vehicle: Klucel (hydroxypropylcellulose) (HPC)) 6 of 6; (dose: 80.0 mg/kg/injection, schedule: Q01DX009 (ip), vehicle: Klucel (hydroxypropylcellulose) (HPC)) 0 of 6; (dose: 82.5 mg/kg/injection, schedule: Q04DX003 (ip), vehicle: Klucel (hydroxypropylcellulose) (HPC)) 2 of 6; (dose: 165.0 mg/kg/injection, schedule: Q04DX003 (ip), vehicle: Klucel (hydroxypropylcellulose) (HPC)) 0 of 6.
For the compound `NC(=O)c1ccc(C(F)(F)F)cc1O`, the survivor count (dose: 400.0 mg/kg/injection, schedule: Q04DX003 (ip), vehicle: Klucel (hydroxypropylcellulose) (HPC)) is reported as 6 of 6.
With `NNc1ncnc2c(C3OC(CO)C(O)C3O)[nH]nc12` (stereo not drawn), the T/C (dose: 150.0 mg/kg/injection, schedule: Q01DX009 (ip), vehicle: water) was 130 % of control [5 of 6 alive].
With `Nc1nc(N)nc(N)n1`, under “dose: 1500.0 mg/kg/injection, schedule: Q01DX009 (ip), vehicle: Klucel (hydroxypropylcellulose) (HPC)”, the survivor count was 0 of 6.
`C[C@]12CC[C@H](O)C[C@@H]1CC[C@@H]1[C@@H]2C(=O)C[C@@]2(C)[C@H]1CC[C@]2(O)C(=O)CBr`: the T/C is 125 % of control under setting [1]; 131 and 137 % of control under setting [2]; 141 % of control under setting [3]; 131 % of control under setting [4]. In addition, under setting [3], the survivor count was 6 of 6.
As for `NNc1cc(N)[nH]n1`, the survivor count (dose: 200.0 mg/kg/injection, schedule: Q01DX009 (ip), vehicle: saline) is 1 of 6.
`N#CC1C(=O)NC(=O)C(C#N)C12CCCCC2` (stereo not drawn): the T/C was 127 % of control under setting [2], 133 % of control [5 of 6 alive] under setting [3] and 127 % of control [4 of 6 alive] under setting [5]. The survivor count by setting is: (dose: 400.0 mg/kg/injection, schedule: Q01DX005 (ip), vehicle: saline with Tween-80) 3 of 6; under setting [6], 3 of 6.
Consider `COc1ccc(/C=C/C(=O)c2ccccc2)cc1OC`, for which the T/C runs as follows: (dose: 200.0 mg/kg/injection, schedule: Q01DX009 (ip), vehicle: water) 128 % of control [5 of 6 alive]; (dose: 300.0 mg/kg/injection, schedule: Q01DX006 (ip), vehicle: water) 125 % of control.
As to `c1nc(SC2CCCC2)c2[nH]cnc2n1`, under setting [7], the survivor count is 0 of 6.
Regarding `Cc1cc2c3ccccc3ncn2n1`, the survivor count by setting is: (dose: 400.0 mg/kg/injection, schedule: Q01DX001 (ip), vehicle: saline) 4 of 6; under setting [8], 4 of 6.
In the case of `COc1ccc(/C=C2\C(=O)C(c3ccccc3)N(c3ccccc3)C2=O)cc1` (stereo not drawn), the survivor count by setting is: (dose: 100.0 mg/kg/injection, schedule: Q04DX002 (ip), vehicle: saline with Tween-80) 6 of 6; (dose: 200.0 mg/kg/injection, schedule: Q04DX002 (ip), vehicle: saline with Tween-80) 6 of 6.
On to `COC(=O)/C=C\SC(=S)C1CCCC1=NC1CCCCC1` (stereo not drawn), for which the survivor count under setting [5] is 6 of 6.
`COc1cccc2c1C(=O)c1c(O)c3c(c(O)c1C2=O)C[C@@](O)(C(C)=O)C[C@@H]3OC1CC(NC(=O)c2ccncc2)C(O)C(C)O1` (stereo partly drawn): the T/C by setting is: (dose: 0.78 mg/kg/injection, schedule: Q01DX009 (ip), vehicle: water) 129 % of control; under setting [9], 140 % of control; (dose: 25.0 mg/kg/injection, schedule: Q01DX009 (ip), vehicle: water) 140 % of control.
As to `Nc1ccccc1C(=O)N/N=C\c1ccc(O)cc1`, the T/C under setting [2] was 126 % of control.
Turning to `CC(C)CC(NC(=O)CN)C(=O)O` (stereo not drawn), the T/C under setting [10] is 125 % of control.
`CN(C)CC(C(=O)Cc1ccccc1)c1ccccc1` (stereo not drawn): the survivor count under setting [5] was 0 of 6.
Take `C[n+]1c(-c2ccc(Cl)cc2Cl)c2cc(N)ccc2c2ccccc21`: the survivor count (dose: 0.39 mg/kg/injection, schedule: Q01DX009 (ip), vehicle: water) is listed as 6 of 6.
On to `COc1cccc(S(=O)(=O)c2ccc([N+](=O)[O-])c3nonc23)c1`, for which the survivor count under setting [2] is given as 3 of 7.
Regarding `COc1ccc(CCNC(=O)Cc2ccc(OC)c(OC)c2)cc1OC`, the survivor count by setting is: under setting [3], 6 of 6; under setting [5], 6 of 6; under setting [7], 6 of 6.
On to `N=c1ccn(C(=O)C2=Cc3ccccc3OC2)cc1`, for which the survivor count is 6 of 6 (dose: 10.0 mg/kg/injection, schedule: Q01DX009 (ip), vehicle: saline with Tween-80) and 6 of 6 (dose: 20.0 mg/kg/injection, schedule: Q01DX009 (ip), vehicle: saline with Tween-80).
As to `c1ccc(OCC2CO2)cc1` (stereo not drawn), the T/C under setting [7] is 125 and 146 % of control.
With `c1ccc(-c2nc3ccccc3nc2-c2ccc(-c3ccc(-c4nc5ccccc5nc4-c4ccccc4)cc3)cc2)cc1`, the survivor count under setting [3] is on record as 6 of 6.
Consider `COc1ccc(C=[N+](C)CCc2ccc(OC)c(OC)c2)cc1OC`, for which, under “dose: 400.0 mg/kg/injection, schedule: Q01DX009 (ip), vehicle: saline”, the survivor count is reported as 1 of 6.
Turning to `CCOc1ccc2nc(N)sc2c1`, the survivor count is, setting by setting: under setting [4], 2 of 6; (dose: 400.0 mg/kg/injection, schedule: Q01DX001 (ip), vehicle: Klucel (hydroxypropylcellulose) (HPC)) 1 of 6; under setting [8], 0 of 6.
As for `CC(C)(C)Cc1cc(O)c2c(c1O)C(=O)c1ccccc1C2=O`, the survivor count is listed as 6 of 6 under setting [11] and 6 of 6 under setting [6].
With `CCCCCCCCCCCC(=O)NC1CC(O[C@H]2C[C@](O)(C(=O)CO)Cc3c(O)c4c(c(O)c32)C(=O)c2c(OC)cccc2C4=O)OC(C)C1O` (stereo partly drawn), under setting [9], the T/C was 131 % of control.
Take `CC(C)=NNC(=O)c1ccccc1`: the survivor count is recorded as 6 of 6 under setting [10], 4 of 6 under setting [11] and 0 of 6 under setting [6].
For the compound `N#CCc1cnc2nc(N)nc(N)c2n1`, the survivor count (dose: 50.0 mg/kg/injection, schedule: Q01DX009 (ip), vehicle: other) is listed as 3 of 3.
